According to the supplement of paper PMC10849652:
Some of the results follow.

Protein sequences, listed by entry. Tags and fused reporters are not part of them. Lines headed by an entry give the natural chain unless they say otherwise; changes in a name come on top.
UniProt Q9H832: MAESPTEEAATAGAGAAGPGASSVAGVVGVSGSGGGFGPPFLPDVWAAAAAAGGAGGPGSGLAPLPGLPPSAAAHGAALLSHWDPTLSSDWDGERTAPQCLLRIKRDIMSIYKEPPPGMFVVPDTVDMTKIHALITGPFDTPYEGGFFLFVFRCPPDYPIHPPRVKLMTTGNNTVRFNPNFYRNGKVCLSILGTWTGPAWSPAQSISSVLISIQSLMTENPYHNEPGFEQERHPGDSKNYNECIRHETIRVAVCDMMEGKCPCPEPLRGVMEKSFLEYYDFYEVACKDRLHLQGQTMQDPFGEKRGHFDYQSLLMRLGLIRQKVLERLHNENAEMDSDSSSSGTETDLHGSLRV
UniProt P61086: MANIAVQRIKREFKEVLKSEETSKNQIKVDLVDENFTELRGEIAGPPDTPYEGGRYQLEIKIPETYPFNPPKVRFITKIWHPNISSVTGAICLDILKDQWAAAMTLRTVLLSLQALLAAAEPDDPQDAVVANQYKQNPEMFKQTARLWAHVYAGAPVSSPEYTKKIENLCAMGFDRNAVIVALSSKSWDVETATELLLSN
UniProt Q7Z7E8: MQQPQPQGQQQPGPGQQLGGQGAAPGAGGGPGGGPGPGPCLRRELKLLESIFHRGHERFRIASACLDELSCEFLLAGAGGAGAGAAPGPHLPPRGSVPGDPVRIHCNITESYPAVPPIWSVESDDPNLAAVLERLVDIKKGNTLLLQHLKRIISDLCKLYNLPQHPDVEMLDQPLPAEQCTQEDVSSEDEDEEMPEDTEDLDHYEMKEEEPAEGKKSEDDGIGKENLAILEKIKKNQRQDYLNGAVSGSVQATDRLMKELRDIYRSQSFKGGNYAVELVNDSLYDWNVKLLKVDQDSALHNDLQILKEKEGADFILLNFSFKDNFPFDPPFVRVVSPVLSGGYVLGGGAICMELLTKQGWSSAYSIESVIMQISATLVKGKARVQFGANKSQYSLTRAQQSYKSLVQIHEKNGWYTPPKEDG
UniProt Q13509, whole entry, looked up: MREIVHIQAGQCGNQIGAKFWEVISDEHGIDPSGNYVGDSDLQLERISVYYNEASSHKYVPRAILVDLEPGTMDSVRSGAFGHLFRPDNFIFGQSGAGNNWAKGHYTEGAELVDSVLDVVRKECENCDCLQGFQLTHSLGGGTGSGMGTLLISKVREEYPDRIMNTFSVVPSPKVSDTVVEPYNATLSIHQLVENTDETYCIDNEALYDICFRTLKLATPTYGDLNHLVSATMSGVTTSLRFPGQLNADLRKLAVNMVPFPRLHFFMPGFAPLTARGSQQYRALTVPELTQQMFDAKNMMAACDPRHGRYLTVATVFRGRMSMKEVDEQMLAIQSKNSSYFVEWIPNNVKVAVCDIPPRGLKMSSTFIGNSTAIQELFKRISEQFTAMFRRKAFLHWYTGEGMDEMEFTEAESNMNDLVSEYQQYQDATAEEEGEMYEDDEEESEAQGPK
UniProt Q8TBC4: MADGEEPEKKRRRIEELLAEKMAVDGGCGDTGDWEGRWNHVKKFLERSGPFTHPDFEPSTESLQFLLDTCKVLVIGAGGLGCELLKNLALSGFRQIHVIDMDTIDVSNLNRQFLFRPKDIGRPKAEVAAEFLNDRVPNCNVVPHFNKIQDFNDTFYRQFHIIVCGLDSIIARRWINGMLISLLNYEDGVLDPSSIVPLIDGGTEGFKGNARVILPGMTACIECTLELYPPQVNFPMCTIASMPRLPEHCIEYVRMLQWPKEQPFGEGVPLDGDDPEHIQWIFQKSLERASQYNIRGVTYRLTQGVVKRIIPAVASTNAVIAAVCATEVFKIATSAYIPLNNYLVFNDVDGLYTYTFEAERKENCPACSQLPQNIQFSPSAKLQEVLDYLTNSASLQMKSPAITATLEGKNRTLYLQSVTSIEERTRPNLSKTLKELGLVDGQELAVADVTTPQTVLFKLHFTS
UniProt Q9NX01: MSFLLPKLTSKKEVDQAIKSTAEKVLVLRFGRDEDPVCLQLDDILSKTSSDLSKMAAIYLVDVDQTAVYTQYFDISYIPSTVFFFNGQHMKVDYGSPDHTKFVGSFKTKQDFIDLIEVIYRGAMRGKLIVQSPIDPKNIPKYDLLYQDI
UniProt Q9BVA1, whole entry, looked up: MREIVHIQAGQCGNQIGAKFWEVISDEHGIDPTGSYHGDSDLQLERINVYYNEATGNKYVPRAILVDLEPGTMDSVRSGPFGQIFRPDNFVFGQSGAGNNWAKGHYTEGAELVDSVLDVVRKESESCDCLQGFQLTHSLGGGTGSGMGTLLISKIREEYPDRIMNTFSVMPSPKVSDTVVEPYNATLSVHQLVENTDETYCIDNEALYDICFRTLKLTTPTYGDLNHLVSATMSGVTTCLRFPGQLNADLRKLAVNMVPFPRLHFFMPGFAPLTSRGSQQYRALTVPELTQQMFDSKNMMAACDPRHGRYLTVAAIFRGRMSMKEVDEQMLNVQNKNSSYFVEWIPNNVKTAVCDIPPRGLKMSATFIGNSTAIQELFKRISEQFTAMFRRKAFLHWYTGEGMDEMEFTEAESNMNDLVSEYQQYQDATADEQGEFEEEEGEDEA
UniProt Q96AE7: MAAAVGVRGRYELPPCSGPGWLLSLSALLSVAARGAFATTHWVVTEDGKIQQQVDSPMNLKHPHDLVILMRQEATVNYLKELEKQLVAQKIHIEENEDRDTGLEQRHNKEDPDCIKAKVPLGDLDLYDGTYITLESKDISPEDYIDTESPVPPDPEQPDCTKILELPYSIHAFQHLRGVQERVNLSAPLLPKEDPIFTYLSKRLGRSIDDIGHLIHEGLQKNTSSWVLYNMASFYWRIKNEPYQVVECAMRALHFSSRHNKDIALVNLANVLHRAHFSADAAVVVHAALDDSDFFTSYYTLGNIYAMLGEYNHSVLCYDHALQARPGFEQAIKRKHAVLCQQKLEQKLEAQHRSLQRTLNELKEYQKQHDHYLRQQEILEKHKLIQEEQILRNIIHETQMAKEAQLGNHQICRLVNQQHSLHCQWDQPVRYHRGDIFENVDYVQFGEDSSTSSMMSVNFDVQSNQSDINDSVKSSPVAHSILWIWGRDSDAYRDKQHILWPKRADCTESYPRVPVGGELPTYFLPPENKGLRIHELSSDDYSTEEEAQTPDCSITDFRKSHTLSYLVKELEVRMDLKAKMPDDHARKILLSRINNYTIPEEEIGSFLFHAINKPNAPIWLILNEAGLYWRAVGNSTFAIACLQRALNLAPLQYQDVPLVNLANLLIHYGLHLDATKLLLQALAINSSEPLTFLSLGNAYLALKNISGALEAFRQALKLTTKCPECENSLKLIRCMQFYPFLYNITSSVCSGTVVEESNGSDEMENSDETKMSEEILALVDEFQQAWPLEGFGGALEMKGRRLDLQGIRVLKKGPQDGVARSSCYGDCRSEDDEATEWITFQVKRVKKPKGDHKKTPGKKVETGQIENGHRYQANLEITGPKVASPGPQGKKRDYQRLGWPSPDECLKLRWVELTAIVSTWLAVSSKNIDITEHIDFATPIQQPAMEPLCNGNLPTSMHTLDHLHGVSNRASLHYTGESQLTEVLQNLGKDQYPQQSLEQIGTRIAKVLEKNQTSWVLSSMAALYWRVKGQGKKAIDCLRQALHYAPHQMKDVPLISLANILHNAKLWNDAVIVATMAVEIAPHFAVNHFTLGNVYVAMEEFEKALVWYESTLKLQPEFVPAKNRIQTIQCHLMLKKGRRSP
UniProt O95857: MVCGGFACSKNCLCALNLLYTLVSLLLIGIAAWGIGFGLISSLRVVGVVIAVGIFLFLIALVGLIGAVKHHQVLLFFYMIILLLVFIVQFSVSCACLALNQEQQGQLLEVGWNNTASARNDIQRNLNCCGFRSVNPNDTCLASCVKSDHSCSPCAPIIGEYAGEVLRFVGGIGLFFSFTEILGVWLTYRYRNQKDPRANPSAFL
UniProt P40222: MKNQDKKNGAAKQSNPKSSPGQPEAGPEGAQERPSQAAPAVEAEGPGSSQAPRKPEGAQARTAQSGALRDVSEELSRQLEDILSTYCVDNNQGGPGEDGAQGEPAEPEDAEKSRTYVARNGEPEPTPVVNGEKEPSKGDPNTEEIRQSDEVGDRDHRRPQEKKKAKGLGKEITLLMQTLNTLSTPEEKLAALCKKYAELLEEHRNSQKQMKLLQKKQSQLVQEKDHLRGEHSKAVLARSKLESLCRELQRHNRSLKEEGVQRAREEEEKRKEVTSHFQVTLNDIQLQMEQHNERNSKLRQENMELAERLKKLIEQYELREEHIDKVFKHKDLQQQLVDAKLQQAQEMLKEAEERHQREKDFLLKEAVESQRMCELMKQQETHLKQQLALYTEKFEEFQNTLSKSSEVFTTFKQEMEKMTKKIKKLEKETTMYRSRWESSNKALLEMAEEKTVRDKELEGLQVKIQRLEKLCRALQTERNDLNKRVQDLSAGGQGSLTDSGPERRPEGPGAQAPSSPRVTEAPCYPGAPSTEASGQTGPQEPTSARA
UniProt Q9NNW7, whole entry, looked up: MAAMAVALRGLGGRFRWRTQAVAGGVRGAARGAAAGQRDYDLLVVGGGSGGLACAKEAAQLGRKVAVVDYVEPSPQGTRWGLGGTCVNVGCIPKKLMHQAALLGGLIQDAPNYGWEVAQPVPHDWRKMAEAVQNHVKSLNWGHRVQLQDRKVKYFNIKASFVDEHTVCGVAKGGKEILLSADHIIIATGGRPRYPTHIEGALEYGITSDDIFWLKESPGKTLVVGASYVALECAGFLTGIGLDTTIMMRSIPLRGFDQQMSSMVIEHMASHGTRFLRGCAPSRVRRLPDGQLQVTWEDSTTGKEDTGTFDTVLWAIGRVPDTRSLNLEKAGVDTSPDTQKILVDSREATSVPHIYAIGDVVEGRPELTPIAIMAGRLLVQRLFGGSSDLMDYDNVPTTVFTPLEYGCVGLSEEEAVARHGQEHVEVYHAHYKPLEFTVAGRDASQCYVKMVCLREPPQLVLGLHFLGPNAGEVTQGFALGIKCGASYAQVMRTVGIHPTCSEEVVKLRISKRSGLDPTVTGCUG
UniProt Q9BUF5, whole entry, looked up: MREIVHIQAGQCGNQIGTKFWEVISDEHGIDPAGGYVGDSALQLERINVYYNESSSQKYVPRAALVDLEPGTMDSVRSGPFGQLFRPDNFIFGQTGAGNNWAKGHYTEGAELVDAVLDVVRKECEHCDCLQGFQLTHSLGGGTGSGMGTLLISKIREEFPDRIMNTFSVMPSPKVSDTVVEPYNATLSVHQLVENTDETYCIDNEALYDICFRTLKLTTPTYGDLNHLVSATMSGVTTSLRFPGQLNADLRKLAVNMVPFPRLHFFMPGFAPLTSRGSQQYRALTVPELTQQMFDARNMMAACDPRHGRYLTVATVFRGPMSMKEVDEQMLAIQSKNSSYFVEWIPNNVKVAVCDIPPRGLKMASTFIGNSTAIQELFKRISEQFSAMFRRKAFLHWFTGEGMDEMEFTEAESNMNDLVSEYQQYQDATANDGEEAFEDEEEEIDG
UniProt Q96J42: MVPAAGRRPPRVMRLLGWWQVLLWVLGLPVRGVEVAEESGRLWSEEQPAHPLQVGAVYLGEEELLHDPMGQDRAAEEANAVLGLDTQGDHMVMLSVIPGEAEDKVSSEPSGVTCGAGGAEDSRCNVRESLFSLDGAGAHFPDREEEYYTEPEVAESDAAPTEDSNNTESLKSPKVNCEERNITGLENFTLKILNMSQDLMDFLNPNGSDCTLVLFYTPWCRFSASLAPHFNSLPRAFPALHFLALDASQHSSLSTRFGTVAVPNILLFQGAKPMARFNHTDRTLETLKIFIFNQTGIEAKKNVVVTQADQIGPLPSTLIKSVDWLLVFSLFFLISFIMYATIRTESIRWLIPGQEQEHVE
UniProt P68363, whole entry, looked up: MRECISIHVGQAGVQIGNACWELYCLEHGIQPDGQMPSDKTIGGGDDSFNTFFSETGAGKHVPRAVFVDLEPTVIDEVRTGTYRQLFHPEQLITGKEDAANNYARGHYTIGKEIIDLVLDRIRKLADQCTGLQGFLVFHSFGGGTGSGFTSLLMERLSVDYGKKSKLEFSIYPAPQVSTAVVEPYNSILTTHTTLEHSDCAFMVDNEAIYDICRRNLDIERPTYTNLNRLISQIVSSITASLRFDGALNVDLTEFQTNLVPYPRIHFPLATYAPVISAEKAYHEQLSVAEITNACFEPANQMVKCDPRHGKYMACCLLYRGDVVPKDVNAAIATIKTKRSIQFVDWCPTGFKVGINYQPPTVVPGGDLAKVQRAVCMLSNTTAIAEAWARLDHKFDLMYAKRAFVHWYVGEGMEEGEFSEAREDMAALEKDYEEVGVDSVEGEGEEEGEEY
UniProt O95881: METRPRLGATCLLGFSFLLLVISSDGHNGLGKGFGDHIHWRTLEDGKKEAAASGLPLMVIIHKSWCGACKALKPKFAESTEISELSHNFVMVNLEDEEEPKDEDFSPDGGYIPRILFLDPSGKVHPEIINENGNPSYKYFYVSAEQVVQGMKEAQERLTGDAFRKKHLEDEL
UniProt Q8N5M4: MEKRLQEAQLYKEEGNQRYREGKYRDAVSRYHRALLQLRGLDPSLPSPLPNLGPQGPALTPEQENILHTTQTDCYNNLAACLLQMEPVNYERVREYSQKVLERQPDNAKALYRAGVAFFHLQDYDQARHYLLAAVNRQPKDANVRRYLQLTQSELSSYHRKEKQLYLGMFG

Tests used:
Test in all cases: log2 fold change, soluble protein after heating vs DMSO (PISA); higher = thermal stabilisation; K562 cells, 10 uM, 30 min; active = over 0.2 and 3.5 SD of the protein, either way, in both replicates (recomputed)
[1] = compound: C1=CC=C(C=C1)[C@H](COC2=CC3=C(C=C2)NC(=O)N3)NC(=O)C4=CC=CN(C4=O)CC5=CC(=C(C=C5)F)F
Outline: (§1)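 Values are thermal stability changes relative to control samples and are taken from duplicates. They are stated as log2 fold changes. Before quantification by TMTpro 16plex LC-MS/MS with equalised channel sums, K562 cells at 2×10^6 cells/mL were treated with 10 μM compound for 30 min, heated in aliquots for 3 min across 48°C-58°C, pooled, extracted in PBS with 0.5% NP-40 at 4°C, and centrifuged at 21,000xg for 90 min to give the soluble supernatant.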

[2] = compound: CC1=C(SC2=C1C(=N[C@H](C3=NN=C(N32)C)CC(=O)N)C4=CC=C(C=C4)Cl)C
Outline: as §1

[3] = compound: CC1=C2C(=CC=C1)N=C(N(C2=O)C3=CC=CC=C3C)CN4C=NC5=C(N=CN=C54)N
Outline: as §1

[4] = compound: Cc1sc2c(c1C)C(c1ccc(Cl)cc1)=N[C@@H](CC(=O)OC(C)(C)C)c1nnc(C)n1-2
Outline: as §1

[5] = compound: c1ccc([C@@H]2C[C@H]2NC2CCNCC2)cc1
Outline: as §1

Measured: log2 fold change

TUBA4A (UniProt C9JJQ8)
inactive: [1] -0.081 | [2] 0.036 | [3] 0 | [4] -0.011 | [5] 0.229

TWISTNB (UniProt Q3B726)
inactive: [1] -0.36 | [2] 0.069 | [3] 0.185 | [4] 0.012 | [5] -0.066

TSPAN3 (UniProt O60637)
inactive: [1] -0.022 | [2] -0.391 | [3] 0.026 | [4] -0.087 | [5] 0.018

UBE2Z (UniProt Q9H832)
inactive: [1] -0.01 | [2] 0.031 | [3] 0.087 | [4] 0.008 | [5] 0.013

TYK2 (UniProt P29597)
inactive: [1] 0.159

UBE2K (UniProt P61086)
inactive: [1] -0.037 | [2] 0.014 | [3] 0.005 | [4] -0.031 | [5] 0.002

Retrieved one by one from the entries so far (4):
TUBA4A (UniProt C9JJQ8)
inactive: [1] -0.081 | [2] 0.036 | [3] 0 | [4] -0.011 | [5] 0.229

TWISTNB (UniProt Q3B726)
inactive: [1] -0.36 | [2] 0.069 | [3] 0.185 | [4] 0.012 | [5] -0.066

UBE2Z (UniProt Q9H832)
inactive: [1] -0.01 | [2] 0.031 | [3] 0.087 | [4] 0.008 | [5] 0.013

UBE2K (UniProt P61086)
inactive: [1] -0.037 | [2] 0.014 | [3] 0.005 | [4] -0.031 | [5] 0.002

Continued.

UBE2J2 isoform 3 (UniProt Q8N2K1)
inactive: [1] 0.003 | [2] 0.078 | [3] -0.106 | [4] -0.014 | [5] -0.144

UBA52 (UniProt P62987)
inactive: [1] 0.088 | [2] -0.301 | [3] -0.569 | [4] 0.265 | [5] 0.193

UBE2Q1 (UniProt Q7Z7E8)
inactive: [1] -0.041 | [2] 0.061 | [3] 0.053 | [4] -0.001 | [5] 0.062

TSR2 (UniProt Q969E8)
inactive: [1] 0.01 | [2] 0.018 | [3] 0.025 | [4] -0.018 | [5] -0.011

TUT1 (UniProt Q9H6E5)
inactive: [1] -0.064

TUBB3 (UniProt Q13509)
inactive: [1] 0.011 | [2] 0.029 | [3] -0.02 | [4] -0.021 | [5] -0.006

UBA3 (UniProt Q8TBC4)
inactive: [1] -0.071 | [2] 0.101 | [3] 0.037 | [4] -0.022 | [5] -0.06

TYRO3 (UniProt Q06418)
inactive: [1] 0.168

U2SURP (UniProt O15042)
inactive: [1] 0.007 | [2] -0.023 | [3] 0.084 | [4] 0.071 | [5] 0.007

UBE2T (UniProt Q9NPD8)
inactive: [1] -0.053 | [2] 0.071 | [3] 0.094 | [4] -0.018 | [5] -0.047

UBE2I (UniProt P63279)
inactive: [1] -0.006 | [2] 0.088 | [3] 0.08 | [4] -0.028 | [5] -0.061

UBAP1 isoform 4 (UniProt Q9NZ09)
inactive: [1] 0.021 | [2] 0.005 | [3] 0.129 | [4] -0.171 | [5] -0.072

TXNL4B (UniProt Q9NX01)
active: [3] -0.537
inactive: [1] 0.1 | [2] 0.068 | [4] -0.102 | [5] -0.12

TXNDC5 (UniProt Q8NBS9)
inactive: [1] 0.008 | [2] 0.017 | [3] -0.008 | [4] -0.037 | [5] 0

TUSC2 (UniProt O75896)
inactive: [1] -0.067

UBE2M (UniProt P61081)
inactive: [1] -0.011 | [2] 0.052 | [3] 0.059 | [4] -0.019 | [5] -0.016

TUBB2B (UniProt Q9BVA1)
inactive: [1] -0.038 | [2] -0.034 | [3] 0.024 | [4] -0.024 | [5] -0.057

TUBB4B (UniProt P68371)
inactive: [1] 0.006 | [2] 0.067 | [3] -0.018 | [4] -0.029 | [5] -0.036

UBE2R2 (UniProt Q712K3)
inactive: [1] 0.007 | [2] 0.024 | [3] 0.127 | [4] -0.035 | [5] 0.013

UBE3A (UniProt Q05086)
inactive: [1] -0.017 | [2] 0.048 | [3] 0.022 | [4] -0.015 | [5] -0.025

TTC17 (UniProt Q96AE7)
inactive: [1] 0.01 | [2] 0 | [3] -0.022 | [4] 0.045 | [5] 0.049

UBA6
inactive: [1] -0.018 | [2] 0 | [3] 0.06 | [4] 0.001 | [5] -0.002

TSPAN13 (UniProt O95857)
inactive: [1] -0.195 | [2] 0.023 | [4] 0.076 | [5] 0.018
active: [3] 0.639

TYW1 (UniProt Q9NV66)
inactive: [1] 0.017 | [2] -0.022 | [3] 0.039 | [4] -0.005 | [5] -0.091

TSR3 (UniProt Q9UJK0)
inactive: [1] 0.053 | [2] -0.048 | [3] -0.022 | [4] 0.012 | [5] 0.074

TWF2 (UniProt Q6IBS0)
inactive: [1] -0.038 | [2] 0.044 | [3] 0.038 | [4] 0.013 | [5] -0.04

TXLNA (UniProt P40222)
inactive: [1] -0.017 | [2] 0.021 | [3] 0.035 | [4] -0.021 | [5] -0.057

TXNRD2 (UniProt Q9NNW7)
inactive: [1] -0.074 | [2] 0.011 | [3] 0.021 | [4] -0.053 | [5] 0.034

TSFM (UniProt P43897)
inactive: [1] -0.17 | [2] 0.03 | [3] 0.177 | [4] -0.138 | [5] 0.012

TUBB6 (UniProt Q9BUF5)
inactive: [1] 0.002 | [2] 0.041 | [3] 0.005 | [4] -0.023 | [5] -0.001

TXNRD1 (UniProt Q16881)
inactive: [1] -0.066 | [2] 0.086 | [3] 0.023 | [4] -0.031 | [5] -0.032

TTI1 (UniProt O43156)
inactive: [1] -0.034 | [2] 0.136 | [3] 0.022 | [4] -0.025 | [5] -0.085

TXN (UniProt P10599)
inactive: [1] -0.068 | [2] -0.028 | [3] -0.066 | [4] 0.011 | [5] 0.04

TXNDC15 (UniProt Q96J42)
inactive: [1] 0.008 | [2] 0.336 | [3] -0.086 | [4] -0.197 | [5] 0.018

TYMS (UniProt P04818)
inactive: [1] 0.019 | [2] 0.026 | [3] -0.026 | [4] -0.077 | [5] -0.031

TUBA1B (UniProt P68363)
inactive: [1] -0.034 | [2] 0.031 | [3] -0.003 | [4] 0.001 | [5] 0.026

TUFM (UniProt P49411)
inactive: [1] -0.031 | [2] 0.106 | [3] 0.093 | [4] 0.003 | [5] -0.058

TTC38 (UniProt Q5R3I4)
inactive: [1] 0.046 | [2] 0.049 | [3] 0.032 | [4] -0.061 | [5] -0.016

UBE2K (UniProt D6RDM7)
inactive: [1] -0.308 | [2] -0.035 | [3] 0.001 | [4] -0.144 | [5] 0.103

UBE2V2 (UniProt Q15819)
inactive: [1] 0.02 | [2] 0.053 | [3] 0.04 | [4] -0.026 | [5] -0.01

TUBA8 (UniProt Q9NY65)
inactive: [1] 0.107 | [2] -0.676 | [3] -0.194 | [4] 0.023 | [5] 0.031

TUBA4A (UniProt P68366)
inactive: [1] -0.02 | [2] 0.077 | [3] -0.03 | [4] -0.01 | [5] -0.076

UBE2J1 (UniProt Q9Y385)
inactive: [1] -0.061 | [2] -0.011 | [3] 0.05 | [4] -0.039 | [5] -0.068

TXNDC12 (UniProt O95881)
inactive: [1] 0.025 | [2] -0.027 | [3] -0.064 | [4] 0.004 | [5] 0.014

TTC9C (UniProt Q8N5M4)
inactive: [1] 0.018 | [2] 0.036 | [3] -0.013 | [4] -0.058 | [5] -0.041

TUBGCP3 (UniProt Q96CW5)
inactive: [1] -0.081 | [2] 0 | [3] 0.091 | [4] 0.12 | [5] -0.047

TUBAL3 (UniProt A6NHL2)
inactive: [1] -0.196 | [2] -0.012 | [3] 0.096 | [4] -0.051 | [5] 0.029

TTLL12 (UniProt Q14166)
inactive: [1] 0.164 | [2] -0.029 | [3] -0.147 | [4] 0.198 | [5] 0

TTC1 (UniProt Q99614)
inactive: [1] 0.007 | [2] -0.016 | [3] -0.012 | [4] -0.008 | [5] 0.013

TTC19 (UniProt Q6DKK2)
inactive: [1] -0.046 | [2] -0.013 | [3] 0.074 | [4] -0.005 | [5] -0.007
